# Experimental data from publication PMC7293015 (Nucleic Acids Research, 2020).
# Sequences of proteins named here, by UniProt entry; tags and fusion partners are left off.
# UniProt Q970I2: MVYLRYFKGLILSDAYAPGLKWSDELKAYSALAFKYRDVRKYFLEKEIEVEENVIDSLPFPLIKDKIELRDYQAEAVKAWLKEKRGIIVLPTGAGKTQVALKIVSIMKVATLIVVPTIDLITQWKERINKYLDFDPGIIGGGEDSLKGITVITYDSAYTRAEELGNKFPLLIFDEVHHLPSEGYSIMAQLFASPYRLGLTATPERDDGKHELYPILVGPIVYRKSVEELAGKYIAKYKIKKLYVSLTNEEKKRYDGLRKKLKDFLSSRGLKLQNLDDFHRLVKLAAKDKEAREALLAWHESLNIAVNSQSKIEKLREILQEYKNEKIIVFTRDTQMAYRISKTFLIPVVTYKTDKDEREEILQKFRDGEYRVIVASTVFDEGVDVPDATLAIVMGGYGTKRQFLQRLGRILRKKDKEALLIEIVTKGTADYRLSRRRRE
# These are yes or no findings as the source states them, for the method shown.
# Molecular target: His6-StXPB (Sulfolobus tokodaii XPB, XPBII) (Sulfolobus tokodaii) (UniProt Q970I2)
# Assay: SEC; S200 size-exclusion chromatography of the proteins alone and mixed; calibrated with Conalbumin (75 kDa), Ovalbumin (44 kDa) and Lactalbumin (14 kDa); both purified
substance,measurement,value
"His6-StXPB (Sulfolobus tokodaii XPB, XPBII) (from UniProt Q970I2 1-439) (enzyme)",binding,no binding
